{
  "sequences": {"note": "Chains of the proteins cited; added tags and fusions are not shown.", "UniProt P0A7I4": "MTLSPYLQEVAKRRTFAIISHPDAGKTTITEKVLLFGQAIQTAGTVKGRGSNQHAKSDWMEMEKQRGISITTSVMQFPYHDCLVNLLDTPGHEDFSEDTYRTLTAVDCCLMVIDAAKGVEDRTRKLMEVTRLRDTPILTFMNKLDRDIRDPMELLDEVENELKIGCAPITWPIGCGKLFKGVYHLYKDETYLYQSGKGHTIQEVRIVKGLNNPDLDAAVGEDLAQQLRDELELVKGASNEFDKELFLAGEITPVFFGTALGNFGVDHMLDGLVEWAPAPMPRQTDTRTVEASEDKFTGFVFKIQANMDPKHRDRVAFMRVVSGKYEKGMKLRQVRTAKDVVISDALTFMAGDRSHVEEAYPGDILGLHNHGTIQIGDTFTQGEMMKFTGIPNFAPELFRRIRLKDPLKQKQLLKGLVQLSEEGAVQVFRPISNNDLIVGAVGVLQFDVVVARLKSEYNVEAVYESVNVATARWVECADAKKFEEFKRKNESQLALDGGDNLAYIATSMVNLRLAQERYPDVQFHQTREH"},
  "source": "paper PMC3677378",
  "target": "ribosomal protein L11 (E. coli) (UniProt P0A7J7)",
  "assay": "cryo-EM structure; RC-RF1•RF3 map, class of ~29,000 projection images, 9.7 Å (FSC 0.5), 70S in MS-I conformation, residual free GDP and no GTP; atomic models fitted by MDFF; both purified",
  "note": "These are yes or no findings as the source states them, for the method shown.",
  "data": [
    {"substance": "release factor 3 (RF3), apo-form (from UniProt P0A7I4 1-529)", "values": [
      {"measurement": "binding", "result": "no binding"}
    ]}
  ]
}
